From patent US20140343124A1 (ROYAL INSTITUTION FOR THE ADVANCEMENT OF LEARNING MCGILL …, published 2014)

Experiments:
[1] = molecular target: actin (actin stress fibers / actin cytoskeleton of glioma cells); assay: sub-cellular localisation by fluorescence microscopy
[2] = molecular target: actin (actin stress fibers / actin cytoskeleton of glioma cells); assay: immunolabelling of wild-type U251 cells with anti-DRR antibody
[3] = molecular target: actin (actin stress fibers / actin cytoskeleton of glioma cells); assay: localisation in transfected cells, actin labelled with phalloidin

Measured: binding

B1: downregulated in renal cell carcinoma (DRR), human, full-length (protein, UniProt O95990 1-144, looked up)
chain: MYSEIQRERADIGGLMARPEYREWNPELIKPKKLLNPVKASRSHQELHRELLMNHRRGLGVDSKPELQRVLEHRRRNQLIKKKKEELEAKRLQCPFEQELLRRQQRLNQLEKPPEKEEDHAPEFIKVRENLRRIATLTSEEREL
binds: all assays above

No constants are given. Whether binding was seen depends on the method and setting. Binding calls can cover weak binding; strength is not graded here.
